The list shows a part of the results.
What was measured:
Assay in all cases: log2 fold change, soluble protein after heating vs DMSO (PISA); higher = thermal stabilisation; K562 lysate, 10 uM; active = over 0.2 and 3.5 SD of the protein, either way, in both replicates (recomputed)
[1] = compound: NCC(=O)Nc1ccc(-n2nc(C(F)(F)F)cc2-c2ccc3c(ccc4ccccc43)c2)cc1
How it was run: (§1)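 Pellets of K562 cells were dounce-homogenised in PBS pH 7.4 with 1 mM MgCl2, and the crude extract was held at 1 mg/mL protein for a 30 min treatment with 10 μM compound. Aliquots were heated for 3 min over 48°C-58°C and pooled before NP-40 was added to 0.5% at 4°C. The supernatant from 21,000xg for 90 min was quantified by TMTpro 16plex LC-MS/MS with channel sums equalised. Values are reported from duplicates as log-two fold change in thermal stability relative to solvent controls.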

Sequences of proteins named here, by UniProt entry; tags and fusion partners are left off. A change or cut given only in a name is not applied to a line headed by its entry.
UniProt Q08495: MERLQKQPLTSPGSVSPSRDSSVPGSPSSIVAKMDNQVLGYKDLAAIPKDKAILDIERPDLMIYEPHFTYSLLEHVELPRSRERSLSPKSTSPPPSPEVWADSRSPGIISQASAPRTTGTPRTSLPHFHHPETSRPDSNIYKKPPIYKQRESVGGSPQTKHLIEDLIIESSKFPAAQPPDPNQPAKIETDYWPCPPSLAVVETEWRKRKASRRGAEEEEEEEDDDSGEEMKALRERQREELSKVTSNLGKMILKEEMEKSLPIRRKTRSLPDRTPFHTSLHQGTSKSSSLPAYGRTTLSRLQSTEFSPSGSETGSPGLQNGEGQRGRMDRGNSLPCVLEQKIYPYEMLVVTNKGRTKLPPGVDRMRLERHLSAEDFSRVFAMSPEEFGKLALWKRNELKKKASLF
UniProt Q7L2E3: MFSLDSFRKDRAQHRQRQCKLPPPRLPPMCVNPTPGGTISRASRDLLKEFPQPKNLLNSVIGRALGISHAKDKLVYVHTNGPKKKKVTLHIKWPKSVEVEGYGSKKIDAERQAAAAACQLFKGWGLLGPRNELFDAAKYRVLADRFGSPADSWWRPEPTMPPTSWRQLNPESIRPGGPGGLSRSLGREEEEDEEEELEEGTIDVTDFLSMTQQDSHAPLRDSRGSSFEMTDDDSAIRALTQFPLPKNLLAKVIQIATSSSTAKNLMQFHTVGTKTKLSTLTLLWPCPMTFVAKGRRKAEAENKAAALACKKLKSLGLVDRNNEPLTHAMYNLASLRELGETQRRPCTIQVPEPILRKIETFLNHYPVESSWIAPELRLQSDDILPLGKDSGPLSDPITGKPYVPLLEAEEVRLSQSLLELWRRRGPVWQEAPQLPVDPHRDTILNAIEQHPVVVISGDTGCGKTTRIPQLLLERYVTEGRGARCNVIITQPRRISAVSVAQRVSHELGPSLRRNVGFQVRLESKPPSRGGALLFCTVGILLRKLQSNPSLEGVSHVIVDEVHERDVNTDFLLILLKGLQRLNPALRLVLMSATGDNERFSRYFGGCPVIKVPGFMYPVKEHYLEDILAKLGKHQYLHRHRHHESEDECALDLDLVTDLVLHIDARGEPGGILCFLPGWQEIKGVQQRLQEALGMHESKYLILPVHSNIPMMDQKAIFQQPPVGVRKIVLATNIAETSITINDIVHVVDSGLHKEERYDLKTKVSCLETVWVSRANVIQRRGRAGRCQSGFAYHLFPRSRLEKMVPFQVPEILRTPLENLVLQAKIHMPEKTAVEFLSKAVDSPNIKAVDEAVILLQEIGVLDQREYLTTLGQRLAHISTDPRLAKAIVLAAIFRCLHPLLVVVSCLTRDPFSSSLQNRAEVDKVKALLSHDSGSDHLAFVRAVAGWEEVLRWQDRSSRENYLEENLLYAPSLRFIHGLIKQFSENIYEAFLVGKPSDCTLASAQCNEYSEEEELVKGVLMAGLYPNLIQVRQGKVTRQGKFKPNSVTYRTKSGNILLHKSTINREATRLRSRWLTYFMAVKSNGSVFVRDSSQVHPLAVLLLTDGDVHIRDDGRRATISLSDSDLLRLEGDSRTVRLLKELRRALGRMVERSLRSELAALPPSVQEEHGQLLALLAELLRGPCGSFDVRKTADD
UniProt P25686: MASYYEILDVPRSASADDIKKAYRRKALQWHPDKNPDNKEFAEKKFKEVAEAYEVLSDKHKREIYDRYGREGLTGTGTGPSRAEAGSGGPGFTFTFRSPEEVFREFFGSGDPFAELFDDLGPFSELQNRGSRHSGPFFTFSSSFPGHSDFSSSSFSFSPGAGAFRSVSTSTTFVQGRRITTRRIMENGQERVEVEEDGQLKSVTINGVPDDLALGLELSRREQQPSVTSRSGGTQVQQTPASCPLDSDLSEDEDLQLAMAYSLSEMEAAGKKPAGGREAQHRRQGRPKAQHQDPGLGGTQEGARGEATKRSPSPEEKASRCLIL
UniProt Q9H5Z1: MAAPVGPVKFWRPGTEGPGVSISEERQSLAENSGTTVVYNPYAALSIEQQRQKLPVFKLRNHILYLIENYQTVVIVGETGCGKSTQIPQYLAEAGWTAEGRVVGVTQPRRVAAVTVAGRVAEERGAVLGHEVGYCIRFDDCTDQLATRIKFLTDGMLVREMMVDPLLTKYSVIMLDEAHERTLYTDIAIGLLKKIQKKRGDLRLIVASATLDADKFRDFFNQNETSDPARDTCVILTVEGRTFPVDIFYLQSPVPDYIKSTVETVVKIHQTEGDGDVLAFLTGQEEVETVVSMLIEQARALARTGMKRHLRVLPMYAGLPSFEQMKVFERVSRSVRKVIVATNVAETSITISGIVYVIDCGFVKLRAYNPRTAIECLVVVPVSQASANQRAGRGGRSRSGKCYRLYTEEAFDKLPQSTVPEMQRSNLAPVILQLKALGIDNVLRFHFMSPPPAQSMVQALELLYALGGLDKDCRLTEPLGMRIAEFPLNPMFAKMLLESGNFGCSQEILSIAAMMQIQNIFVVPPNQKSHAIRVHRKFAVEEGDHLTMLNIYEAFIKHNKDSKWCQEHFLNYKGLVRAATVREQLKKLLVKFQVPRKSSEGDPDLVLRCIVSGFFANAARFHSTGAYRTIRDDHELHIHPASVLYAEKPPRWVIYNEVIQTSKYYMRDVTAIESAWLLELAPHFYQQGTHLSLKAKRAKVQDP
UniProt Q9UDY4: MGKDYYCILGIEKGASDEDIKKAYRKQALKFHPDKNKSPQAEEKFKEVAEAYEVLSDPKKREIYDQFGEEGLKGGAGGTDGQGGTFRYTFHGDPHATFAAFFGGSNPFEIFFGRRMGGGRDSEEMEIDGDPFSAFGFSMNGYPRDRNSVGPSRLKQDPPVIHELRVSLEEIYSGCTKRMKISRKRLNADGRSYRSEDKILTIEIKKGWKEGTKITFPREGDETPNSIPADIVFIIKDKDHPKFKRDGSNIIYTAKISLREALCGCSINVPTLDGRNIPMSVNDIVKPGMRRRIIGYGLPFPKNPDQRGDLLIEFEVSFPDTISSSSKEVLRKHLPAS
UniProt Q02127: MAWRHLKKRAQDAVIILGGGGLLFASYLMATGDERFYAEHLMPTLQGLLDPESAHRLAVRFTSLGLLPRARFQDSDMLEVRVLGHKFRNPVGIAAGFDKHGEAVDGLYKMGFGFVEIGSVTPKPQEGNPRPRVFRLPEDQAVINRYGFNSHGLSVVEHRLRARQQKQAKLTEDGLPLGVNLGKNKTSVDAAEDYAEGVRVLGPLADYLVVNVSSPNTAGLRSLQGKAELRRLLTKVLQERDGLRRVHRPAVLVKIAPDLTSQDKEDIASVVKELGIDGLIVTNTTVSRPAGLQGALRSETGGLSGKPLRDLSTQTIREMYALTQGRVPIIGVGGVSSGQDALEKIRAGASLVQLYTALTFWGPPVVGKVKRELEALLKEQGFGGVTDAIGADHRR
UniProt O75190: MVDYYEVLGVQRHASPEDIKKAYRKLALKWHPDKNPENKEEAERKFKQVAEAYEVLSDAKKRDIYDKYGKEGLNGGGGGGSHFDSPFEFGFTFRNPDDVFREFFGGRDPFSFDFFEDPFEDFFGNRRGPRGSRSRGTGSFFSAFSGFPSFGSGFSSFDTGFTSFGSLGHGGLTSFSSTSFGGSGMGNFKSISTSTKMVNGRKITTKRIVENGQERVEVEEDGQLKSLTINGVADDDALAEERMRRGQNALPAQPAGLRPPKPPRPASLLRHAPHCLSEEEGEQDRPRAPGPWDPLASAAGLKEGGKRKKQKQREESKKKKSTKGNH
UniProt Q99704: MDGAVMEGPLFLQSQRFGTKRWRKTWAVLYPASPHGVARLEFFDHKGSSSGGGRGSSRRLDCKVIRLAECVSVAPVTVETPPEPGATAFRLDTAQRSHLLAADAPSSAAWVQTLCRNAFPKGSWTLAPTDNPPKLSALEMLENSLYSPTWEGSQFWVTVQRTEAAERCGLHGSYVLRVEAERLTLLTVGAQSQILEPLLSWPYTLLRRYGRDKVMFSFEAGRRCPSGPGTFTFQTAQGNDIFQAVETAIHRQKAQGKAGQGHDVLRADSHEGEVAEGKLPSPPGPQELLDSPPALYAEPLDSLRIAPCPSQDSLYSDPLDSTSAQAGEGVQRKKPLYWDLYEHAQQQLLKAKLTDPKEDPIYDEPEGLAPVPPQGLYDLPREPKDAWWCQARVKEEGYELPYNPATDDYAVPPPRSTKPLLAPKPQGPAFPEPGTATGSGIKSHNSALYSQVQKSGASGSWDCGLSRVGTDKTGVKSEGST
UniProt P49366: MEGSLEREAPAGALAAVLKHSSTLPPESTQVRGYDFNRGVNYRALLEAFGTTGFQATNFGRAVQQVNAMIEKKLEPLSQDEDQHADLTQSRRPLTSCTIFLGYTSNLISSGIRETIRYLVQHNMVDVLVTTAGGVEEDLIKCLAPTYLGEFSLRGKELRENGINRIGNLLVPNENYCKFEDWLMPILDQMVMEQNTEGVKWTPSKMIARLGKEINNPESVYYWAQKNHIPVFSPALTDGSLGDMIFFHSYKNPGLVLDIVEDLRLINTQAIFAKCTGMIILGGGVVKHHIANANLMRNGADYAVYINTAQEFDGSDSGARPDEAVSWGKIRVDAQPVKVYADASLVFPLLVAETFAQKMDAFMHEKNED
UniProt Q96KC8: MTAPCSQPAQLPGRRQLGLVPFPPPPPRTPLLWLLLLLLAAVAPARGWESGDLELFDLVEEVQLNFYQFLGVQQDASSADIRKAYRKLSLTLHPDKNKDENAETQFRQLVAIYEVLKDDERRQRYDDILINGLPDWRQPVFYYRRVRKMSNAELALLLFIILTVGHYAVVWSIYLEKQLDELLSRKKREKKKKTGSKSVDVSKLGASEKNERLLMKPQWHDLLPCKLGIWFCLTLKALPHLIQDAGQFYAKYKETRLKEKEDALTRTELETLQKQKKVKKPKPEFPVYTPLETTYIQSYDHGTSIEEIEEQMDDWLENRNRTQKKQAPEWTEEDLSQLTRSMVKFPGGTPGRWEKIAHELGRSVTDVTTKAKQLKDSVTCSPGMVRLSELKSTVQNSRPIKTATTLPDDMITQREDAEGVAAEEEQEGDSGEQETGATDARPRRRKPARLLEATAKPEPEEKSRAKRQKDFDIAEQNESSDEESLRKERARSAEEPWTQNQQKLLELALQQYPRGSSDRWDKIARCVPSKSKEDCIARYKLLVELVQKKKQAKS
UniProt Q9H3Z4: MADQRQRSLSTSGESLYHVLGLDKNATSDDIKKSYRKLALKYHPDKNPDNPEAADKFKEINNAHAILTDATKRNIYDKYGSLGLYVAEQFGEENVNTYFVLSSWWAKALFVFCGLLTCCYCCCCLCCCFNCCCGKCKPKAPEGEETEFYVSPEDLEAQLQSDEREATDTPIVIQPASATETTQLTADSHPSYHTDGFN
UniProt O60884: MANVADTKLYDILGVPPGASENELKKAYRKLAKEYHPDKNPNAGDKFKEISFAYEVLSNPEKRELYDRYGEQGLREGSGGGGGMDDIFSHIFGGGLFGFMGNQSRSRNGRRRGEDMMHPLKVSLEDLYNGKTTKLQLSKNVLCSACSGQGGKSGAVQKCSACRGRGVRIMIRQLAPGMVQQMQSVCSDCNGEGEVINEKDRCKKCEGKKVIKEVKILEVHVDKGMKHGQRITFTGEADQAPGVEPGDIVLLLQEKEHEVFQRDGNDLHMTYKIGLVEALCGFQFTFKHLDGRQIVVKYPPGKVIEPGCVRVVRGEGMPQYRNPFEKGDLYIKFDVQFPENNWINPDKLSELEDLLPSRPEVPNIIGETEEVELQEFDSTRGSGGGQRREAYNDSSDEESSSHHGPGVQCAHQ
UniProt Q8WXX5: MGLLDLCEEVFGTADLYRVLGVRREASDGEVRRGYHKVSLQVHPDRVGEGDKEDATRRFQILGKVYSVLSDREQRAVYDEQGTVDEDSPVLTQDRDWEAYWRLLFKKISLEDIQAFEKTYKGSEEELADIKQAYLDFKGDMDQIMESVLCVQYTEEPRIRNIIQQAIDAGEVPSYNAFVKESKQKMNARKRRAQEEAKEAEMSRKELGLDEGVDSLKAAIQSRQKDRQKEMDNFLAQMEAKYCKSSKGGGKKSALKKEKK
UniProt Q99615: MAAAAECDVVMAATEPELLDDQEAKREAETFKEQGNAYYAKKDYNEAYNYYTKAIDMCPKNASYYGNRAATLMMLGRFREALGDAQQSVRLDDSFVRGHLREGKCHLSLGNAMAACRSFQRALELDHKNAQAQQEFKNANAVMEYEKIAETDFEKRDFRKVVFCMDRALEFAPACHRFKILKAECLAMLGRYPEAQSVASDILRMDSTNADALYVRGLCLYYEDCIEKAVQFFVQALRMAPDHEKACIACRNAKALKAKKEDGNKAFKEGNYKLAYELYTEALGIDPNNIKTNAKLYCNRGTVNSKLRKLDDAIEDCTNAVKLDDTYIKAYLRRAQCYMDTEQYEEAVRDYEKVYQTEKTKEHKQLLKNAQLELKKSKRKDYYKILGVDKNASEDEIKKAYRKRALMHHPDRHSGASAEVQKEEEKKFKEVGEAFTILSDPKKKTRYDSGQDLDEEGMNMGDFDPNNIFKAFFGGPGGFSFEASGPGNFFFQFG

vorinostat = compound: O=C(CCCCCCC(=O)Nc1ccccc1)NO [vorinostat]
How it was run: as §1

silmitasertib = compound: O=C(O)c1ccc2c(c1)nc(Nc1cccc(Cl)c1)c1ccncc12 [silmitasertib]
How it was run: as §1

[2] = compound: O=C1NC(=O)C(c2cnc3ccccn23)=C1c1cn2c3c(cc(F)cc13)CN(C(=O)N1CCCCC1)CC2
How it was run: as §1

entospletinib = compound: c1cn2cc(-c3ccc4cn[nH]c4c3)nc(Nc3ccc(N4CCOCC4)cc3)c2n1 [entospletinib]
How it was run: as §1

Measured: log2 fold change

DLST (UniProt P36957)
inactive: [1] 0.011 | vorinostat 0.154 | silmitasertib -0.026 | [2] -0.008 | entospletinib -0.028

DMTN (UniProt Q08495)
inactive: [1] 0.03 | vorinostat 0.063 | silmitasertib -0.042 | [2] -0.018 | entospletinib -0.018

DMTF1 (UniProt Q9Y222)
inactive: [1] -0.096 | vorinostat 0.004 | silmitasertib 0.022 | [2] -0.012 | entospletinib 0.007

DIP2A (UniProt Q14689)
inactive: [1] 0.004 | vorinostat -0.075 | silmitasertib 0.01 | [2] 0.04 | entospletinib -0.014

DHX30 isoform 2 (UniProt Q7L2E3)
inactive: [1] 0.001 | vorinostat -0.104 | silmitasertib 0.011 | [2] 0.026 | entospletinib 0.021

DOCK2 (UniProt Q92608)
inactive: [1] 0.032 | vorinostat -0.11 | silmitasertib 0.208 | [2] -0.037 | entospletinib -0.037

DOT1L isoform 1 (UniProt Q8TEK3)
inactive: [1] 0.008 | vorinostat -0.06 | silmitasertib -0.003 | [2] -0.084 | entospletinib -0.011

DHFR (UniProt P00374)
inactive: [1] -0.045 | vorinostat -0.214 | silmitasertib 0.133 | [2] 0 | entospletinib 0.002

DNAJA3 (UniProt Q96EY1)
inactive: [1] 0.01 | vorinostat 0.049 | silmitasertib -0.002 | [2] 0.048 | entospletinib -0.014

DNAJB2 (UniProt P25686)
inactive: [1] 0.089 | vorinostat 0.115 | silmitasertib -0.059 | [2] -0.146 | entospletinib -0.001

DNAJC8 (UniProt O75937)
inactive: [1] -0.011 | vorinostat 0.119 | silmitasertib -0.013 | [2] -0.036 | entospletinib 0.02

DHX35 (UniProt Q9H5Z1)
inactive: [1] 0.058 | vorinostat -0.313 | silmitasertib 0.059 | [2] 0.174 | entospletinib -0.026

DNMT1 isoform 2 (UniProt P26358)
inactive: [1] -0.024 | vorinostat 0.028 | silmitasertib 0.017 | [2] -0.018 | entospletinib 0.001

DNAJB4 (UniProt Q9UDY4)
inactive: [1] -0.02 | vorinostat -0.042 | silmitasertib -0.002 | [2] -0.071 | entospletinib -0.032

DNAJC21 isoform 3 (UniProt Q5F1R6)
inactive: [1] 0.009 | vorinostat -0.198 | silmitasertib 0.031 | [2] -0.029 | entospletinib 0.001

DGKH (UniProt Q86XP1)
inactive: [1] 0.299 | vorinostat -0.116 | silmitasertib -0.022 | [2] -0.064 | entospletinib 0.077

DIS3L2 (UniProt Q8IYB7)
inactive: [1] -0.014 | vorinostat -0.172 | silmitasertib 0.108 | [2] -0.079 | entospletinib 0.01

DHX29 (UniProt Q7Z478)
inactive: [1] -0.017 | vorinostat -0.034 | silmitasertib -0.027 | [2] -0.034 | entospletinib -0.026

DNAH10 (UniProt Q8IVF4)
inactive: [1] 0.103 | vorinostat 0.065 | silmitasertib 0 | [2] 0.069 | entospletinib 0.065

DOHH (UniProt Q9BU89)
inactive: [1] -0.103 | vorinostat 0.004 | silmitasertib 0.024 | [2] 0.001 | entospletinib -0.031

DHODH (UniProt Q02127)
inactive: [1] 0.036 | vorinostat 0.064 | silmitasertib -0.005 | [2] -0.005 | entospletinib -0.053

DNAJB6 (UniProt O75190)
inactive: [1] 0.041 | vorinostat 0.069 | silmitasertib -0.04 | [2] -0.029 | entospletinib 0.004

DHX8 (UniProt Q14562)
inactive: [1] -0.06 | vorinostat 0.045 | silmitasertib -0.004 | [2] -0.042 | entospletinib -0.006

DOK1 (UniProt Q99704)
inactive: [1] -0.036 | silmitasertib -0.043 | [2] -0.012 | entospletinib -0.011
active: vorinostat -0.297

DHPS (UniProt P49366)
inactive: [1] -0.009 | vorinostat 0.06 | silmitasertib -0.003 | [2] 0.021 | entospletinib 0.008

DGUOK (UniProt Q16854)
inactive: [1] 0.036 | vorinostat 0.125 | silmitasertib -0.042 | [2] 0.002 | entospletinib -0.018

DLGAP5 (UniProt Q15398)
active: vorinostat -0.252
inactive: [1] -0.008 | silmitasertib -0.002 | [2] -0.006 | entospletinib -0.004

DIS3L (UniProt Q8TF46)
inactive: [1] 0.072 | vorinostat -0.243 | silmitasertib 0.061 | [2] 0.027 | entospletinib -0.05

DNM1L isoform 2 (UniProt O00429)
inactive: [1] 0.156 | vorinostat 0.065 | silmitasertib 0.195 | [2] -0.045 | entospletinib 0.27

DNAJC10 (UniProt Q8IXB1)
inactive: [1] 0.048 | vorinostat 0.081 | silmitasertib -0.033 | [2] -0.027 | entospletinib -0.01

DOCK11 (UniProt Q5JSL3)
inactive: [1] -0.001 | vorinostat -0.148 | silmitasertib 0.036 | [2] 0.006 | entospletinib -0.001

DNAJB1 (UniProt P25685)
inactive: [1] -0.027 | vorinostat -0.062 | silmitasertib 0.012 | [2] -0.02 | entospletinib 0.001

DNA2 (UniProt P51530)
inactive: [1] -0.059 | silmitasertib 0.127 | [2] -0.027 | entospletinib -0.053
active: vorinostat -0.448

DNAL1 (UniProt Q4LDG9)
inactive: [1] 0.02 | vorinostat 0.064 | silmitasertib 0.023 | [2] 0.097 | entospletinib -0.079

DHCR7 (UniProt Q9UBM7)
inactive: [1] -0.098 | vorinostat -0.022 | silmitasertib 0.03 | [2] -0.004 | entospletinib 0.078

DNAJC1 (UniProt Q96KC8)
inactive: [1] 0.003 | vorinostat 0.017 | silmitasertib 0.025 | [2] -0.007 | entospletinib -0.032

DLG3 isoform 2 (UniProt Q92796)
inactive: [1] 0.067 | vorinostat -0.023 | silmitasertib -0.025 | [2] -0.036 | entospletinib -0.007

DNAJC13 (UniProt O75165)
inactive: [1] 0 | vorinostat 0.029 | silmitasertib -0.001 | [2] 0.041 | entospletinib -0.023

DNAJC11 (UniProt Q9NVH1)
inactive: [1] 0.002 | vorinostat 0.003 | silmitasertib 0.018 | [2] -0.032 | entospletinib 0.029

DHRS1 (UniProt Q96LJ7)
inactive: [1] -0.154 | silmitasertib -0.021 | [2] -0.055 | entospletinib -0.138
active: vorinostat -0.561

DNAJA1 (UniProt P31689)
inactive: [1] 0.021 | vorinostat -0.013 | silmitasertib 0.017 | [2] -0.004 | entospletinib 0.011

DNAJC5 (UniProt Q9H3Z4)
inactive: [1] 0.02 | vorinostat 0.101 | silmitasertib -0.071 | [2] -0.03 | entospletinib 0.019

DNAJC2 (UniProt Q99543)
inactive: [1] -0.057 | vorinostat -0.225 | silmitasertib 0.034 | [2] -0.041 | entospletinib 0.003

DHX9 (UniProt Q08211)
inactive: [1] -0.006 | vorinostat -0.072 | silmitasertib 0.036 | [2] 0 | entospletinib 0.03

DNAJA2 (UniProt O60884)
inactive: [1] 0.008 | vorinostat -0.003 | silmitasertib 0.006 | [2] 0.006 | entospletinib 0

DMAP1 (UniProt Q9NPF5)
inactive: [1] -0.042 | vorinostat -0.192 | silmitasertib 0.036 | [2] 0 | entospletinib 0.03

DNAJC9 (UniProt Q8WXX5)
inactive: [1] -0.044 | vorinostat 0.063 | silmitasertib -0.018 | [2] -0.012 | entospletinib 0.015

Copied from above (three entries):
DNAJC2 (UniProt Q99543)
inactive: [1] -0.057 | vorinostat -0.225 | silmitasertib 0.034 | [2] -0.041 | entospletinib 0.003

DHX9 (UniProt Q08211)
inactive: [1] -0.006 | vorinostat -0.072 | silmitasertib 0.036 | [2] 0 | entospletinib 0.03

DNAJA2 (UniProt O60884)
inactive: [1] 0.008 | vorinostat -0.003 | silmitasertib 0.006 | [2] 0.006 | entospletinib 0

Further results

DIAPH1 (UniProt O60610)
inactive: [1] 0.013 | vorinostat -0.014 | silmitasertib 0.009 | [2] -0.02 | entospletinib -0.003

DNASE2 (UniProt O00115)
inactive: [1] -0.03 | vorinostat 0.158 | silmitasertib 0 | [2] -0.075 | entospletinib 0.021

DNAJC7 (UniProt Q99615)
inactive: [1] -0.069 | vorinostat -0.259 | silmitasertib 0.049 | [2] -0.073 | entospletinib 0.048

DOCK10 (UniProt Q96BY6)
inactive: [1] 0 | vorinostat -0.07 | silmitasertib 0.143 | [2] -0.064 | entospletinib 0.023

DIEXF (UniProt Q68CQ4)
inactive: [1] -0.035 | vorinostat -0.28 | silmitasertib 0.045 | [2] 0.053 | entospletinib -0.006

DHX38 (UniProt Q92620)
inactive: [1] -0.032 | vorinostat 0.011 | silmitasertib 0.003 | [2] -0.005 | entospletinib 0.007

Reference: the supplement of paper PMC10849652
